Reference: publication PMC4488483, “Reversible Oxidation of a Conserved Methionine in the Nuclear Export Sequence Determines Subcellular Distribution and Activity of the Fungal Nitrate Regulator NirA” (PLoS Genetics, 2015)
These are yes or no findings as the source states them, for the method shown. In cells and extracts the contact can be indirect. Binding can be weak; no strength is given.

Columns and labels:
[1] = biological target: T1, NirA-NES synthetic peptide with methionine 169 sulfoxide (D159-G176) (Aspergillus nidulans); assay: pull-down; biotinylated NES peptides immobilised on streptavidin Sepharose, incubated 2 h on ice with 1 ml cell-free extract of the strain Stag-KapK grown non-induced (arginine); washes with 150, 250 and 500 mM NaCl, 10 mM Tris-HCl pH 8; Western blot with anti-S-tag antibody; only the target purified
T1 sequence (peptide, methionine sulfoxide at 169; biotin (position not stated)): DQFESELAGKMSNLVLDG

[2] = biological target: T2, NirA-NES synthetic peptide with reduced methionine 169 (D159-G176) (Aspergillus nidulans); assay: as above
T2 sequence (peptide, biotin (position not stated)): DQFESELAGKMSNLVLDG

- binding [1]: binds
- binding [2]: binds
Substance: S-tagged KapK (exportin KapK, the CRM1 homologue in A. nidulans) (from UniProt Q6Q6S4)
